The target of the assay is T1, BIR2 (endogenous) (Arabidopsis thaliana (endogenous in Arabidopsis plants)) (UniProt Q9LSI9).
T1 sequence: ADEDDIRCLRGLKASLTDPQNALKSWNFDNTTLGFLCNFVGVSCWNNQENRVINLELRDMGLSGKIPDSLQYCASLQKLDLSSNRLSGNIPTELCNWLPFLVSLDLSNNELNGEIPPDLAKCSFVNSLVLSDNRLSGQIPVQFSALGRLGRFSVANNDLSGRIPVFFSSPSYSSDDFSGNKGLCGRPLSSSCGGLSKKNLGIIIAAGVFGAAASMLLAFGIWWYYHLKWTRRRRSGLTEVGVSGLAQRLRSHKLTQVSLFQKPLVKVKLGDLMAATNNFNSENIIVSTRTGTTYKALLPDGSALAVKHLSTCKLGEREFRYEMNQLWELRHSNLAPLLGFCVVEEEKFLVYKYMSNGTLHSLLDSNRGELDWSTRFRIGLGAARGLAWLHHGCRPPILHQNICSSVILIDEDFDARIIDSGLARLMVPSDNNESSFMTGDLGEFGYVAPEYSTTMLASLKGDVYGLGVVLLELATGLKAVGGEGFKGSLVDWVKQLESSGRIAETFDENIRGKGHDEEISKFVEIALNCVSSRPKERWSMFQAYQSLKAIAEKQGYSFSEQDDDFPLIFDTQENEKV
The assay is described as follows: affinity purification with mass spectrometry; Co-IP of BIR2 (endogenous; wild type against BIR2 knockdown/knockout plants) or BIR3 from 2 g Arabidopsis leaf material, SDS-PAGE, in-gel trypsin digest, LC-MS/MS.

The chains behind the UniProt entries cited, without tags or fusion partners. Where a name states a change or a piece, a line headed by the entry shows the natural chain unless it says otherwise.
UniProt Q9SRH6: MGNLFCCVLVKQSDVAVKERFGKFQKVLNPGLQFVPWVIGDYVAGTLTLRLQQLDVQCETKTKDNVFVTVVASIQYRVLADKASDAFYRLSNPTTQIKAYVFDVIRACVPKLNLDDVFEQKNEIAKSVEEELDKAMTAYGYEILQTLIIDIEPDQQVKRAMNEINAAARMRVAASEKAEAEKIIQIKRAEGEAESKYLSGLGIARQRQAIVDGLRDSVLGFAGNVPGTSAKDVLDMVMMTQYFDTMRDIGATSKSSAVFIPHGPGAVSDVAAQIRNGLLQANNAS

These are yes or no findings as the source states them, for the method shown. In cells and extracts the contact can be indirect. Here binding means that the protein was enriched with, or labelled near, the bait; the list need not be complete.

As to “HIR2 (endogenous, found by mass spectrometry) (from UniProt Q9SRH6)”, the binding entry was “binds”.

The values above are taken from article PMC13534476, “The Arabidopsis SPFH protein HIR2 modulates receptor signaling and plasma membrane organization” (The EMBO Journal, 2026).
